# Laboratory results taken from the supplement of paper PMC8728848.
# The other results are listed elsewhere or left out.
# Key:
# Assay in all cases: glycan array binding signal (z-score within array); higher = stronger binding
# Settings in all cases: glycan notation: IUPAC condensed, linker removed
# [1] = target: GlcNAc(b1-3)Gal(b1-4)GlcNAc(b1-3)Gal(b1-4)GlcNAc(b1-3)GalNAc
# Procedure, shortened: (§1)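 The binding signal is a Z-score computed within each array and averaged over linkers. Arrays of the same protein sequence at different concentrations or buffers were also averaged together. Data originate from 3228 arrays in the Consortium for Functional Glycomics database, kept only where the protein sequence was available.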
# [2] = target: GlcNAc(b1-3)Gal(b1-4)GlcNAc(b1-3)GalNAc
# Procedure, shortened: as §1
# [3] = target: GlcNAc(b1-3)Gal(b1-4)GlcNAc(b1-3)[GlcNAc(b1-3)Gal(b1-4)GlcNAc(b1-3)]GalNAc
# Procedure, shortened: as §1
# [4] = target: GlcNAc(b1-3)Gal(b1-4)GlcNAc(b1-6)[Gal(b1-3)]GalNAc
# Procedure, shortened: as §1
# [5] = target: GlcNAc(b1-3)Gal(b1-4)GlcNAc(b1-6)[GlcNAc(b1-3)Gal(b1-3)]GalNAc
# Procedure, shortened: as §1
# [6] = target: GlcNAc(b1-3)Gal(b1-4)GlcNAc(b1-6)[GlcNAc(b1-3)]Gal(b1-4)GlcNAc
# Procedure, shortened: as §1
# GlcNAc(b1-3)GalNAc = target: GlcNAc(b1-3)GalNAc
# Procedure, shortened: as §1
# GlcNAc(b1-3)Man = target: GlcNAc(b1-3)Man
# Procedure, shortened: as §1
# [7] = target: GlcNAc(b1-3)[GlcNAc(b1-4)][GlcNAc(b1-6)]GlcNAc
# Procedure, shortened: as §1
# [8] = target: GlcNAc(b1-3)[GlcNAc(b1-6)]Gal(b1-4)GlcNAc
# Procedure, shortened: as §1
# [9] = target: GlcNAc(b1-3)[GlcNAc(b1-6)]GalNAc
# Procedure, shortened: as §1
# [10] = target: GlcNAc(b1-4)Gal(b1-4)GlcNAc
# Procedure, shortened: as §1
# GlcNAc(b1-4)GlcNAc = target: GlcNAc(b1-4)GlcNAc
# Procedure, shortened: as §1
# [11] = target: GlcNAc(b1-4)GlcNAc(b1-4)GlcNAc
# Procedure, shortened: as §1
# [12] = target: GlcNAc(b1-4)GlcNAc(b1-4)GlcNAc(b1-4)GlcNAc(b1-4)GlcNAc
# Procedure, shortened: as §1
# [13] = target: GlcNAc(b1-4)GlcNAc(b1-4)GlcNAc(b1-4)GlcNAc(b1-4)GlcNAc(b1-4)GlcNAc
# Procedure, shortened: as §1
# [14] = target: GlcNAc(b1-4)[GlcNAc(b1-6)]GalNAc
# Procedure, shortened: as §1
# [15] = target: GlcNAc(b1-6)Gal(b1-4)GlcNAc
# Procedure, shortened: as §1
# GlcNAc(b1-6)GalNAc = target: GlcNAc(b1-6)GalNAc
# Procedure, shortened: as §1
# [16] = target: GlcNAc6S(b1-3)Gal(b1-4)GlcNAc
# Procedure, shortened: as §1
# Kdn(a2-3)Gal(b1-3)GalNAc = target: Kdn(a2-3)Gal(b1-3)GalNAc
# Procedure, shortened: as §1
# Kdn(a2-3)Gal(b1-3)GlcNAc = target: Kdn(a2-3)Gal(b1-3)GlcNAc
# Procedure, shortened: as §1
# Kdn(a2-3)Gal(b1-4)Glc = target: Kdn(a2-3)Gal(b1-4)Glc
# Procedure, shortened: as §1
# Kdn(a2-3)Gal(b1-4)GlcNAc = target: Kdn(a2-3)Gal(b1-4)GlcNAc
# Procedure, shortened: as §1
# [17] = target: Kdn(a2-3)Gal(b1-4)[Fuc(a1-3)]GlcNAc
# Procedure, shortened: as §1
# Kdn(a2-6)Gal(b1-4)GlcNAc = target: Kdn(a2-6)Gal(b1-4)GlcNAc
# Procedure, shortened: as §1
# [18] = target: Man(a1-2)Man(a1-2)Man(a1-3)Man
# Procedure, shortened: as §1
# [19] = target: Man(a1-2)Man(a1-2)Man(a1-6)[Man(a1-3)]Man
# Procedure, shortened: as §1
# Man(a1-2)Man(a1-3)Man = target: Man(a1-2)Man(a1-3)Man
# Procedure, shortened: as §1
# [20] = target: Man(a1-2)Man(a1-3)[Man(a1-2)Man(a1-6)]Man
# Procedure, shortened: as §1
binder,measurement,setting,value
"Thrombomodulin Extracellular (Mus musculus), P15306 (protein) MLGIFFLGVLAPASLGLSALAKLQPTGSQCVEHECFALFQGPATFLDASQACQRLQGHLMTVRSSVAADVISLLLSQSSMDLGPWIGLQLPQGCDDPVHLGPLRGFQWVTGDNHTSYSRWARPNDQTAPLCGPLCVTVSTATEAAPGEPAWEEKPCETETQGFLCEFYFTASCRPLTVNTRDPEAAHISSTYNTPFGVSGADFQTLPVGSSAAVEPLGLELVCRAPPGTSEGHWAWEATGAWNCSVENGGCEYLCNRSTNEPRCLCPRDMDLQADGRSCARPVVQSCNELCEHFCVSNAEVPGSYSCMCETGYQLAADGHRCEDVDDCKQGPNPCPQLCVNTKGGFECFCYDGYELVDGECVELLDPCFGSNCEFQCQPVSPTDYRCICAPGFAPKPDEPHKCEMFCNETSCPADCDPNSPTVCECPEGFILDEGSVCTDIDECSQGECFTSECRNFPGSYECICGPDTALAGQISKDCDPIPVREDTKEEEGSGEPPVSPTPGSPTGPPSARPVHSGVLIGISIASLSLVVALLALLCHLRKKQGAARAELEYKCASSAKEVVLQHVRTDRTLQKF",glycan array binding signal (z-score),[1],-0.162
same,glycan array binding signal (z-score),[2],-0.528
same,glycan array binding signal (z-score),[3],1.44
same,glycan array binding signal (z-score),[4],0.263
same,glycan array binding signal (z-score),[5],-0.188
same,glycan array binding signal (z-score),[6],-0.325
same,glycan array binding signal (z-score),GlcNAc(b1-3)GalNAc,-0.37
same,glycan array binding signal (z-score),GlcNAc(b1-3)Man,0.187
same,glycan array binding signal (z-score),[7],-0.852
same,glycan array binding signal (z-score),[8],0.36
same,glycan array binding signal (z-score),[9],-0.253
same,glycan array binding signal (z-score),[10],0.222
same,glycan array binding signal (z-score),GlcNAc(b1-4)GlcNAc,0.672
same,glycan array binding signal (z-score),[11],1.95
same,glycan array binding signal (z-score),[12],1.75
same,glycan array binding signal (z-score),[13],-0.113
same,glycan array binding signal (z-score),[14],-1.16
same,glycan array binding signal (z-score),[15],0.967
same,glycan array binding signal (z-score),GlcNAc(b1-6)GalNAc,-0.314
same,glycan array binding signal (z-score),[16],-0.079
same,glycan array binding signal (z-score),Kdn(a2-3)Gal(b1-3)GalNAc,-0.442
same,glycan array binding signal (z-score),Kdn(a2-3)Gal(b1-3)GlcNAc,2.1
same,glycan array binding signal (z-score),Kdn(a2-3)Gal(b1-4)Glc,1.43
same,glycan array binding signal (z-score),Kdn(a2-3)Gal(b1-4)GlcNAc,1.32
same,glycan array binding signal (z-score),[17],0.111
same,glycan array binding signal (z-score),Kdn(a2-6)Gal(b1-4)GlcNAc,-0.33
same,glycan array binding signal (z-score),[18],0.237
same,glycan array binding signal (z-score),[19],-0.609
same,glycan array binding signal (z-score),Man(a1-2)Man(a1-3)Man,0.82
same,glycan array binding signal (z-score),[20],-1.82

# Not a retest: entries from further up.
binder,measurement,setting,value
"Thrombomodulin Extracellular (Mus musculus), P15306 (protein) MLGIFFLGVLAPASLGLSALAKLQPTGSQCVEHECFALFQGPATFLDASQACQRLQGHLMTVRSSVAADVISLLLSQSSMDLGPWIGLQLPQGCDDPVHLGPLRGFQWVTGDNHTSYSRWARPNDQTAPLCGPLCVTVSTATEAAPGEPAWEEKPCETETQGFLCEFYFTASCRPLTVNTRDPEAAHISSTYNTPFGVSGADFQTLPVGSSAAVEPLGLELVCRAPPGTSEGHWAWEATGAWNCSVENGGCEYLCNRSTNEPRCLCPRDMDLQADGRSCARPVVQSCNELCEHFCVSNAEVPGSYSCMCETGYQLAADGHRCEDVDDCKQGPNPCPQLCVNTKGGFECFCYDGYELVDGECVELLDPCFGSNCEFQCQPVSPTDYRCICAPGFAPKPDEPHKCEMFCNETSCPADCDPNSPTVCECPEGFILDEGSVCTDIDECSQGECFTSECRNFPGSYECICGPDTALAGQISKDCDPIPVREDTKEEEGSGEPPVSPTPGSPTGPPSARPVHSGVLIGISIASLSLVVALLALLCHLRKKQGAARAELEYKCASSAKEVVLQHVRTDRTLQKF",glycan array binding signal (z-score),[9],-0.253
same,glycan array binding signal (z-score),[10],0.222
same,glycan array binding signal (z-score),GlcNAc(b1-4)GlcNAc,0.672
same,glycan array binding signal (z-score),[11],1.95
same,glycan array binding signal (z-score),[12],1.75
same,glycan array binding signal (z-score),[13],-0.113
same,glycan array binding signal (z-score),[14],-1.16
